Measurements published in patent US8034382B2, “Preparation method for biodegradable micro-particles containing drugs” (The Board of Trustees of the University of Arkansas, priority 2008, dated 2011).
Where a name gives a salt, the structure may show the parent alone. Some entries share one result that the patent states for a list of compounds. Some compounds share one range, which may span the group rather than tell each member.

Assay: Encapsulation efficiency of drug in PLA/PLGA microparticles prepared with hydroxyapatite gel (UV absorption)
Type: physicochemical
Conditions: PLA/PLGA polymers
Protocol: Leuprolide acetate and poly(lactic acid-co-glycolic acid) (PLGA) RG502H or PLA R202H were dissolved in a 24/76 (v/v) methanol/dichloromethane mixture at a concentration of 20% polymer and 10% leuprolide (w/v) to prepare the polymer-drug solution. An aqueous suspension of hyroxyapatite was prepared by dissolving 6 g of CaO in 400 ml water. Then phosphoric acid was added to adjust the pH of the aqueous suspension to between 9.0 and 10.0. Hydroxyapatite gel was formed in situ in the aqueous suspension under these conditions by the reaction 10 CaO+6 H3PO4=Ca10(PO4)6(OH)2+8 H2O. The drug/polymer solution (2 or 3 ml) was dispersed into the aqueous suspension medium. The dispersion was initially homogenized by a high-shear mixer at 5,000 or more rpm for 5 minutes. The solvents were then evaporated by stirring at 600 rpm for 1 hour or longer. Then concentrated HCl was added slowly until the hydroxyapatite dissolved and the suspension cleared. Hydroxyapatite is dissolved by the reaction Ca10(PO4)6(OH)2+20 HCl=10 CaCl2+6 H3PO4+2 H2O. […]
Encapsulation efficiency refers to the mass of drug recovered in microparticles divided by the starting mass of drug in the polymer-drug phase. To quantify drug in microparticles, the microparticles were first dissolved in an ethanol/dichloroethane (28/72 v/v) mixture. The drug content of the solution was then measured by ultraviolet absorption. […]

SMILES: CCNC(=O)[C@@H]1CCCN1C(=O)[C@H](CCCNC(=N)N)NC(=O)[C@H](CC(C)C)NC(=O)[C@@H](CC(C)C)NC(=O)[C@H](Cc1ccc(O)cc1)NC(=O)[C@H](CO)NC(=O)[C@H](Cc1c[nH]c2ccccc12)NC(=O)[C@H](Cc1c[nH]cn1)NC(=O)[C@@H]1CCC(=O)N1 [leuprolide acetate, Leuprolide acetate]
- pH of aqueous suspension giving best encapsulation efficiency: 9.0 to 10.0

SMILES: COC(=O)C1=C(C)NC(C)=C(C(=O)OCCN(C)Cc2ccccc2)C1c1cccc([N+](=O)[O-])c1 (centres unmarked) [nicardipine HCl]
- pH of aqueous suspension giving best encapsulation efficiency: 9.0 to 10.0
